Reference: the supplement of paper PMC10849652
Some of the results follow.

Amino acid sequences for entries named in this document (tags omitted). A change or cut given only in a name is not applied to a line headed by its entry.
UniProt Q9H4L7: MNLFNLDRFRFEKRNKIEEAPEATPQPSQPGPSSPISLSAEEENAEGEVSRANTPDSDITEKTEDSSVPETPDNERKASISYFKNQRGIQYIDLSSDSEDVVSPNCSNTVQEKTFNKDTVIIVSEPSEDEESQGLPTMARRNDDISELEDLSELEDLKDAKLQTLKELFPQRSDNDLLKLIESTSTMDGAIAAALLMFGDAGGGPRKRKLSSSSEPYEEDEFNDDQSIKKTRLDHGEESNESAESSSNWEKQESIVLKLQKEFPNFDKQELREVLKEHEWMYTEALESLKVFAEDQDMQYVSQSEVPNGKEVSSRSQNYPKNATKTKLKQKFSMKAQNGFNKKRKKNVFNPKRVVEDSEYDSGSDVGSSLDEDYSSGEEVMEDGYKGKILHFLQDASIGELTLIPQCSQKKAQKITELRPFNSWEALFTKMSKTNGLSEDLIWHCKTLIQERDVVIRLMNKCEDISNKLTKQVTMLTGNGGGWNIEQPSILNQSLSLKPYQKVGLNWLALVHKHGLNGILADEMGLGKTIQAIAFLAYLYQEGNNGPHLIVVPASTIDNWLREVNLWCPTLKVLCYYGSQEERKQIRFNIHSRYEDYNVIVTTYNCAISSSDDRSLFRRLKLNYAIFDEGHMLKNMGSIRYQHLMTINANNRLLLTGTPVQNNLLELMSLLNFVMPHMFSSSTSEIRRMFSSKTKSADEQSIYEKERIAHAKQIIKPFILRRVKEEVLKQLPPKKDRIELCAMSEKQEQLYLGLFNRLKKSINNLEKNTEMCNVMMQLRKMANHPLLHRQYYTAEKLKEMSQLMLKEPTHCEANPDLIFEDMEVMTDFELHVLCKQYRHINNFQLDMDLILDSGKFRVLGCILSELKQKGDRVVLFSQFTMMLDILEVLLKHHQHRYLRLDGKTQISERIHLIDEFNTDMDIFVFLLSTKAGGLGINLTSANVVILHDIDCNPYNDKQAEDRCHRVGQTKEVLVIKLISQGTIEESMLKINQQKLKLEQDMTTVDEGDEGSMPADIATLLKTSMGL
UniProt Q96KF7: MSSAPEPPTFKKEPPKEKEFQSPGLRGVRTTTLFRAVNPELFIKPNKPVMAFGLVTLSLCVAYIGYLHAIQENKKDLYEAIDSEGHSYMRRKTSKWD
UniProt P08579, whole entry, looked up: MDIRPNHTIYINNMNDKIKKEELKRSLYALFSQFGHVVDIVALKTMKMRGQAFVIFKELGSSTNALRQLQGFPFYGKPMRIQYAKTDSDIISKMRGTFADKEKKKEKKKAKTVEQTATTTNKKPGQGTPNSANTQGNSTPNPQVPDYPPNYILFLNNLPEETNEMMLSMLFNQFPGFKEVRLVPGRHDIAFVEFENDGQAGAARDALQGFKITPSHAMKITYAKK
UniProt Q9NRS6: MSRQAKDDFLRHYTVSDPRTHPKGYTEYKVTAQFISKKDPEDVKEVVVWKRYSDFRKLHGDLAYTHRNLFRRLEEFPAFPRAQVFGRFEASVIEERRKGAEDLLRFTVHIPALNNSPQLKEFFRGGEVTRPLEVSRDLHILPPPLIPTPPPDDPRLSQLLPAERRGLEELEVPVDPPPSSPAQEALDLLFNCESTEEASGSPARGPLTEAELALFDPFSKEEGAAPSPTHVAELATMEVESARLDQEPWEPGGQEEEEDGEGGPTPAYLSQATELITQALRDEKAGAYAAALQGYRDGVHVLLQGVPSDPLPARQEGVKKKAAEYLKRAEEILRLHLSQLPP
UniProt Q9NTJ3, whole entry, looked up: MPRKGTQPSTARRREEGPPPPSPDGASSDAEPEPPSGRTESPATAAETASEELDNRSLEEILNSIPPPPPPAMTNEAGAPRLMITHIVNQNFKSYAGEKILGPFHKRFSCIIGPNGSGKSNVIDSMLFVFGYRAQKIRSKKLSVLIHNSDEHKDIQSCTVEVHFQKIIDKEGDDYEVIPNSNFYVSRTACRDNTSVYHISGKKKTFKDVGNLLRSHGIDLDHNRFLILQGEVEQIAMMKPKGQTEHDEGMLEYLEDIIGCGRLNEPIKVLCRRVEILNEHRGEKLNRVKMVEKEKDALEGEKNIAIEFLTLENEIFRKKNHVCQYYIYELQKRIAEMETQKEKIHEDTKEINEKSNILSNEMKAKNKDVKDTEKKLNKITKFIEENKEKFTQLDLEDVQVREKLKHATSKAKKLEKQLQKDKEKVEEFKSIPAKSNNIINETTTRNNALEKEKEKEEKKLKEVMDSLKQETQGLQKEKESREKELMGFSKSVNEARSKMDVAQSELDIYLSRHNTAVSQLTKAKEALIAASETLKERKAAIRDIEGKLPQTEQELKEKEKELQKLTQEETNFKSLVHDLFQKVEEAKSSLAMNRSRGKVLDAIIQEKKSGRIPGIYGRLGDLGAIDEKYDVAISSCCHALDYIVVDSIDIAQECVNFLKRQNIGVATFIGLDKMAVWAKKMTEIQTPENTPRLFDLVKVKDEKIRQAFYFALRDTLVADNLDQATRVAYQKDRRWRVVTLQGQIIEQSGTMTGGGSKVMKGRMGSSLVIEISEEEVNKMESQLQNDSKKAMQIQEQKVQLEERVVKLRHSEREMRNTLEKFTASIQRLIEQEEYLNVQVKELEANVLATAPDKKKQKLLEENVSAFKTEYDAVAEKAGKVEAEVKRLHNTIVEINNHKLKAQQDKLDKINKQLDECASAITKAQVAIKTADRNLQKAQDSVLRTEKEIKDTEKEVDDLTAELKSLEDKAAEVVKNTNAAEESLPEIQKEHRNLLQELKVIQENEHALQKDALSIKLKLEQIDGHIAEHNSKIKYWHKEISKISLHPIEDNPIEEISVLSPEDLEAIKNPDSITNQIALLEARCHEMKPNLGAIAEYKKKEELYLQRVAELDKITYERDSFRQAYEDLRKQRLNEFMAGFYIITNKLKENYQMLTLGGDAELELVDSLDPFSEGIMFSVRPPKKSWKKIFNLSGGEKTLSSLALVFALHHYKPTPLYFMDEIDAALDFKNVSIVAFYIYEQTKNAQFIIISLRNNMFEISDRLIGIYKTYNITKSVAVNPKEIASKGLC
UniProt P00441, whole entry, looked up: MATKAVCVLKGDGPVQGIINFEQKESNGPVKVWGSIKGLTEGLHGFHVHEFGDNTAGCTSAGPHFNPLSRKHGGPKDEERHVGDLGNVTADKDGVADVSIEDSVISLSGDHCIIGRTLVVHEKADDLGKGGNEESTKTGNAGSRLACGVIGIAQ
UniProt Q96DI7: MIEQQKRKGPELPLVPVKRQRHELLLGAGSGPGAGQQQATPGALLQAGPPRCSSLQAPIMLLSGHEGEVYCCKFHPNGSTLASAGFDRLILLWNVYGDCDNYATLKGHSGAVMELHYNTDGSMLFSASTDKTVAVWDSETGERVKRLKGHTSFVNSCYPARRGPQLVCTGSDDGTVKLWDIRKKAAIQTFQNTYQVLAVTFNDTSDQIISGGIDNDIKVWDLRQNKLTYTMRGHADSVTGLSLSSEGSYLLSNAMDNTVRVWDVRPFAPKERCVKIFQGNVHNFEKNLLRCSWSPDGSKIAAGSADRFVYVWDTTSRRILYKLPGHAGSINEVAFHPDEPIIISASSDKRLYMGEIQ
UniProt Q9Y5W9: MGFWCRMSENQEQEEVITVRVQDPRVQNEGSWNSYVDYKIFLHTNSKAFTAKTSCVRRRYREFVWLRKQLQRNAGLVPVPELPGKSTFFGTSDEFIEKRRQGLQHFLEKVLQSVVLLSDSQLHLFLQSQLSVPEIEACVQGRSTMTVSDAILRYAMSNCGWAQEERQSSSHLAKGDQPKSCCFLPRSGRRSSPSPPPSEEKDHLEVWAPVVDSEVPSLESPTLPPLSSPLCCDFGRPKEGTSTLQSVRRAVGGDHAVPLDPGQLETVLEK
UniProt O00161: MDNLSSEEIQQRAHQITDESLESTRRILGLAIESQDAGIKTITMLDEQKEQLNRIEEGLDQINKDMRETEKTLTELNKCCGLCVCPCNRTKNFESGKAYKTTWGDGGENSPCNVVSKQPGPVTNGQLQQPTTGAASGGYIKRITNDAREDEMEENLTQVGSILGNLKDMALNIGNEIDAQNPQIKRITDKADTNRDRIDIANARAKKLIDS
UniProt O60271: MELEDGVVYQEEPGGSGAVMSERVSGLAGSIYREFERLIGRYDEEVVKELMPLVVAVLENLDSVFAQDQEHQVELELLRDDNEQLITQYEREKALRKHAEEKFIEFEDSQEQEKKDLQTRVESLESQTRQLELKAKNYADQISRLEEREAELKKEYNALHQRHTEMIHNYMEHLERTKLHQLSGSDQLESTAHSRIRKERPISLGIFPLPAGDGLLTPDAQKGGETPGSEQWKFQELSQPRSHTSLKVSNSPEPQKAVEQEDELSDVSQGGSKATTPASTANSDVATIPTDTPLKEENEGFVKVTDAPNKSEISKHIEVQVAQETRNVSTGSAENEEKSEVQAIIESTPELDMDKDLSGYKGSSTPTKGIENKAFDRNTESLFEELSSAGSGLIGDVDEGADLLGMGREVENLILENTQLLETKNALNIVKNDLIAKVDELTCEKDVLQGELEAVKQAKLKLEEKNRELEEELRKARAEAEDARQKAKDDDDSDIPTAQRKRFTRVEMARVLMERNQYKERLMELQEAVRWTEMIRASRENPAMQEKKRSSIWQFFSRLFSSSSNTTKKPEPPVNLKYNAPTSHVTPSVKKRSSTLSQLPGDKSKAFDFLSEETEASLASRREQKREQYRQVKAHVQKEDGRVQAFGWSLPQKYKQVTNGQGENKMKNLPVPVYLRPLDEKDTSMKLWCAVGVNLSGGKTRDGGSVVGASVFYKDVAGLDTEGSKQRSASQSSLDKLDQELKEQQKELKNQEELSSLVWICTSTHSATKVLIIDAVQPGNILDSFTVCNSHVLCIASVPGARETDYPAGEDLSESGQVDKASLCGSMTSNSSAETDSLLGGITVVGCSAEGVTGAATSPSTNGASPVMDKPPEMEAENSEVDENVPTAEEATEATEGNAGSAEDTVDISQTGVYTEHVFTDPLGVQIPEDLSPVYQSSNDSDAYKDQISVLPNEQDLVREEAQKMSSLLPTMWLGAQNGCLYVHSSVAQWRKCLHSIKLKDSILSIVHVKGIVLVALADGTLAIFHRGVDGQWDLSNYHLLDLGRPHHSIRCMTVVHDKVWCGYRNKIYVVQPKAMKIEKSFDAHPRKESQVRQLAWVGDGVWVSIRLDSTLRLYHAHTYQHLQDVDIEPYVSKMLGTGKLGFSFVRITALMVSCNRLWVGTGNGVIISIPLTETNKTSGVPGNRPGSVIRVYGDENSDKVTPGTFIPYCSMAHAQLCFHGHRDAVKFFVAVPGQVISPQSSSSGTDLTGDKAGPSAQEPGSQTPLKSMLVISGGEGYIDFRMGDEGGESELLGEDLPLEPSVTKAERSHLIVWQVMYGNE
UniProt Q8ND04: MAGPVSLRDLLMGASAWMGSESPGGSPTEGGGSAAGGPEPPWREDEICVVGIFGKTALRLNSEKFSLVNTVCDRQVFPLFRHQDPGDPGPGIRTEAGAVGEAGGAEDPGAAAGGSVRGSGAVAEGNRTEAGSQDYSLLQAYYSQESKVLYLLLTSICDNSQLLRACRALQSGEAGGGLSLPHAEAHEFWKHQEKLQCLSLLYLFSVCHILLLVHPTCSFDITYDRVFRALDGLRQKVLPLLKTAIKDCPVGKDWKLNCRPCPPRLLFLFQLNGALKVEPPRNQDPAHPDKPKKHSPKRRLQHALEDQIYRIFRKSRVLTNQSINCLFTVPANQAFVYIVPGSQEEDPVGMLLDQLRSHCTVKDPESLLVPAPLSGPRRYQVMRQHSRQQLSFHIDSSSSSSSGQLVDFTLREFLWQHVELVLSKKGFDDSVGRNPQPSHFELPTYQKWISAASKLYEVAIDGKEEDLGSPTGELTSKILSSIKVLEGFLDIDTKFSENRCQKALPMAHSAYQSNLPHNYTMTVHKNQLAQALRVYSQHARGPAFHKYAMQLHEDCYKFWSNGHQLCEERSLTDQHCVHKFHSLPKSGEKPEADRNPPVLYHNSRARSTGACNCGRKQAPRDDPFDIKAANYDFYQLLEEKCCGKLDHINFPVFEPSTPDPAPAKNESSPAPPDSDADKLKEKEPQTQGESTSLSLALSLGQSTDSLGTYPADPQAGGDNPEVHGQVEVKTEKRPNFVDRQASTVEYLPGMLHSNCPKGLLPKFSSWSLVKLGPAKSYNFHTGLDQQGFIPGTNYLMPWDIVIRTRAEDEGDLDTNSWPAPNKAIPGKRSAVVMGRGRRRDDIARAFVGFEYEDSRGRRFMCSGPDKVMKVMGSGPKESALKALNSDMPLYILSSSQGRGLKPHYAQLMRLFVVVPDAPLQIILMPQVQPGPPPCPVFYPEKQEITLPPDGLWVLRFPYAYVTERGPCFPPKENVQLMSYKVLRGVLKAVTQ
UniProt O75940: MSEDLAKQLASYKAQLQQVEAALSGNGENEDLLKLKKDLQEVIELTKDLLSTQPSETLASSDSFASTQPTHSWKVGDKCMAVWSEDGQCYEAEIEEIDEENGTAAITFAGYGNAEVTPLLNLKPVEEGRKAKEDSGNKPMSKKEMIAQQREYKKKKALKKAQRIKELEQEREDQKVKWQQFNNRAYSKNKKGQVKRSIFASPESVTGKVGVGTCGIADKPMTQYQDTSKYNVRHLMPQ

Columns and labels:
Experiment in all cases: log2 fold change, soluble protein after heating vs DMSO (PISA); higher = thermal stabilisation; K562 lysate, 10 uM; active = over 0.2 and 3.5 SD of the protein, either way, in both replicates (recomputed)
lapatinib = compound: CS(=O)(=O)CCNCc1ccc(-c2ccc3ncnc(Nc4ccc(OCc5cccc(F)c5)c(Cl)c4)c3c2)o1 [lapatinib]
How it was run: (§1)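 Values give the log-two fold change in thermal stability against solvent controls, from duplicates. Crude K562 extract at 1 mg/mL protein, made by dounce homogenisation in PBS pH 7.4 with 1 mM MgCl2, was treated with 10 μM compound for 30 min. After 3 min heating across 48°C-58°C, aliquots were pooled, adjusted to 0.5% NP-40 at 4°C and centrifuged at 21,000xg for 90 min. The supernatant was measured by TMTpro 16plex LC-MS/MS with channel sums equalised.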

pictilisib = compound: CS(=O)(=O)N1CCN(Cc2cc3nc(-c4cccc5[nH]ncc45)nc(N4CCOCC4)c3s2)CC1 [pictilisib]
How it was run: as §1

crizotinib = compound: C[C@@H](Oc1cc(-c2cnn(C3CCNCC3)c2)cnc1N)c1c(Cl)ccc(F)c1Cl [crizotinib]
How it was run: as §1

[1] = compound: C[C@H](C1=CC=C(C=C1)C(=O)NC2=C3C=CNC3=NC=C2)N
How it was run: as §1

duvelisib = compound: C[C@H](Nc1ncnc2nc[nH]c12)c1cc2cccc(Cl)c2c(=O)n1-c1ccccc1 [duvelisib]
How it was run: as §1

gandotinib = compound: Cc1cc(Nc2cc(CN3CCOCC3)c3nc(C)c(Cc4ccc(Cl)cc4F)n3n2)n[nH]1 [gandotinib]
How it was run: as §1

tozasertib = compound: Cc1cc(Nc2cc(N3CCN(C)CC3)nc(Sc3ccc(NC(=O)C4CC4)cc3)n2)n[nH]1 [tozasertib]
How it was run: as §1

doramapimod = compound: Cc1ccc(-n2nc(C(C)(C)C)cc2NC(=O)Nc2ccc(OCCN3CCOCC3)c3ccccc23)cc1 [doramapimod]
How it was run: as §1

bafetinib = compound: Cc1ccc(NC(=O)c2ccc(CN3CC[C@H](N(C)C)C3)c(C(F)(F)F)c2)cc1Nc1nccc(-c2cncnc2)n1 [bafetinib]
How it was run: as §1

[2] = compound: Cc1cccc(CC(=O)N2CCc3c2ccc(-c2cn(C)c4ncnc(N)c24)c3F)n1
How it was run: as §1

nilotinib = compound: Cc1cn(-c2cc(NC(=O)c3ccc(C)c(Nc4nccc(-c5cccnc5)n4)c3)cc(C(F)(F)F)c2)cn1 [nilotinib]
How it was run: as §1

[3] = compound: Cc1nc(Nc2n[nH]c3c2CN(C(=O)N[C@H](CN(C)C)c2ccccc2)C3(C)C)c2sccc2n1
How it was run: as §1

dasatinib = compound: Cc1nc(Nc2ncc(C(=O)Nc3c(C)cccc3Cl)s2)cc(N2CCN(CCO)CC2)n1 [dasatinib]
How it was run: as §1

[4] = compound: Cc1ncc(-c2ccnc(Nc3ccc(S(C)(=O)=O)cc3)n2)n1C(C)C
How it was run: as §1

[5] = compound: Cn1cc(-c2ccc3c(c2)CCN3C(=O)Cc2cccc(C(F)(F)F)c2)c2c(N)ncnc21
How it was run: as §1

quisinostat = compound: Cn1cc(CNCC2CCN(c3ncc(C(=O)NO)cn3)CC2)c2ccccc21 [quisinostat]
How it was run: as §1

tipifarnib = compound: Cn1cncc1[C@@](N)(c1ccc(Cl)cc1)c1ccc2c(c1)c(-c1cccc(Cl)c1)cc(=O)n2C [tipifarnib]
How it was run: as §1

[6] = compound: NC(=O)Nc1cc(-c2cccc(F)c2)sc1C(=O)N[C@H]1CCCNC1
How it was run: as §1

[7] = compound: NC(=O)c1cnc(N[C@@H]2CCCC[C@@H]2N)nc1Nc1cccc(-n2nccn2)c1
How it was run: as §1

[8] = compound: NC1(c2ccc(-c3nc4ccn5c(=O)[nH]nc5c4cc3-c3ccccc3)cc2)CCC1
How it was run: as §1

Measured: log2 fold change

SNTB2 (UniProt Q13425)
inactive: lapatinib -0.032 | pictilisib -0.004 | crizotinib 0.024 | [1] 0.02 | duvelisib 0.078 | gandotinib -0.004 | tozasertib 0.138 | doramapimod 0.021 | bafetinib -0.013 | [2] 0.032 | nilotinib 0.038 | [3] -0.004 | dasatinib -0.044 | [4] -0.023 | [5] 0.074 | quisinostat -0.222 | tipifarnib -0.005 | [6] 0.188 | [7] -0.005 | [8] -0.081

SMARCAD1 isoform 2 (UniProt Q9H4L7)
inactive: lapatinib -0.005 | pictilisib -0.015 | crizotinib -0.073 | [1] -0.019 | duvelisib -0.013 | gandotinib -0.044 | tozasertib 0.018 | doramapimod 0.003 | bafetinib -0.045 | [2] 0.008 | nilotinib -0.001 | [3] -0.008 | dasatinib -0.033 | [4] -0.005 | [5] -0.005 | quisinostat -0.054 | tipifarnib -0.025 | [6] 0.016 | [7] 0.059 | [8] -0.007

SMIM8 (UniProt Q96KF7)
inactive: lapatinib -0.053 | pictilisib -0.079 | crizotinib -0.041 | [1] -0.146 | duvelisib 0.019 | gandotinib 0.128 | tozasertib -0.038 | doramapimod -0.059 | bafetinib -0.035 | [2] 0.018 | nilotinib 0.059 | [3] -0.018 | dasatinib 0.032 | [4] 0.055 | [5] -0.023 | quisinostat 0.084 | tipifarnib -0.033 | [6] -0.02 | [7] -0.045 | [8] -0.013

SNRPB2 (UniProt P08579)
inactive: lapatinib -0.023 | pictilisib -0.011 | crizotinib 0.013 | [1] 0.021 | duvelisib 0.014 | gandotinib 0.012 | tozasertib -0.036 | doramapimod -0.023 | bafetinib -0.012 | [2] -0.017 | nilotinib -0.013 | [3] 0.031 | dasatinib 0 | [4] 0.003 | [5] 0.006 | quisinostat 0.013 | tipifarnib 0.012 | [6] 0.018 | [7] -0.01 | [8] -0.015

SNX15 (UniProt Q9NRS6)
inactive: lapatinib -0.006 | pictilisib -0.001 | crizotinib -0.014 | [1] -0.005 | duvelisib 0.005 | gandotinib -0.016 | tozasertib 0.022 | doramapimod -0.021 | bafetinib 0.011 | [2] 0.006 | nilotinib -0.007 | [3] 0.047 | dasatinib -0.032 | [4] -0.006 | [5] 0.058 | quisinostat -0.076 | tipifarnib 0.027 | [6] 0.011 | [7] -0.001 | [8] 0.065

SMC4 (UniProt Q9NTJ3)
inactive: lapatinib -0.028 | pictilisib -0.002 | crizotinib -0.007 | [1] 0.068 | duvelisib 0.009 | gandotinib -0.154 | tozasertib -0.012 | doramapimod -0.026 | bafetinib -0.021 | [2] -0.051 | nilotinib -0.01 | [3] 0.009 | dasatinib -0.03 | [4] 0.016 | [5] 0.003 | quisinostat -0.014 | tipifarnib -0.003 | [6] 0.027 | [7] 0.009 | [8] -0.023

SOD1 (UniProt P00441)
inactive: lapatinib 0.012 | pictilisib -0.05 | crizotinib 0.242 | [1] 0.148 | duvelisib -0.027 | gandotinib 0 | tozasertib -0.028 | doramapimod -0.094 | bafetinib -0.025 | [2] -0.127 | nilotinib -0.059 | [3] -0.008 | dasatinib 0.082 | [4] -0.264 | [5] 0 | quisinostat 0.009 | tipifarnib 0.049 | [6] 0.041 | [7] -0.027 | [8] 0.033

SMU1 (UniProt Q2TAY7)
inactive: lapatinib 0.026 | pictilisib 0.002 | crizotinib -0.015 | [1] -0.012 | duvelisib 0.003 | gandotinib 0.012 | tozasertib -0.01 | doramapimod 0.042 | bafetinib -0.021 | [2] -0.017 | nilotinib 0.003 | [3] -0.023 | dasatinib -0.001 | [4] -0.015 | [5] 0.009 | quisinostat -0.014 | tipifarnib -0.032 | [6] -0.003 | [7] -0.005 | [8] 0.031

Three neighbouring records out of the list so far, for reference:
SNX15 (UniProt Q9NRS6)
inactive: lapatinib -0.006 | pictilisib -0.001 | crizotinib -0.014 | [1] -0.005 | duvelisib 0.005 | gandotinib -0.016 | tozasertib 0.022 | doramapimod -0.021 | bafetinib 0.011 | [2] 0.006 | nilotinib -0.007 | [3] 0.047 | dasatinib -0.032 | [4] -0.006 | [5] 0.058 | quisinostat -0.076 | tipifarnib 0.027 | [6] 0.011 | [7] -0.001 | [8] 0.065

SMC4 (UniProt Q9NTJ3)
inactive: lapatinib -0.028 | pictilisib -0.002 | crizotinib -0.007 | [1] 0.068 | duvelisib 0.009 | gandotinib -0.154 | tozasertib -0.012 | doramapimod -0.026 | bafetinib -0.021 | [2] -0.051 | nilotinib -0.01 | [3] 0.009 | dasatinib -0.03 | [4] 0.016 | [5] 0.003 | quisinostat -0.014 | tipifarnib -0.003 | [6] 0.027 | [7] 0.009 | [8] -0.023

SOD1 (UniProt P00441)
inactive: lapatinib 0.012 | pictilisib -0.05 | crizotinib 0.242 | [1] 0.148 | duvelisib -0.027 | gandotinib 0 | tozasertib -0.028 | doramapimod -0.094 | bafetinib -0.025 | [2] -0.127 | nilotinib -0.059 | [3] -0.008 | dasatinib 0.082 | [4] -0.264 | [5] 0 | quisinostat 0.009 | tipifarnib 0.049 | [6] 0.041 | [7] -0.027 | [8] 0.033

(further entries)

SNRNP40 (UniProt Q96DI7)
inactive: lapatinib -0.014 | pictilisib 0.063 | crizotinib -0.042 | [1] -0.075 | duvelisib -0.006 | gandotinib 0.167 | tozasertib 0.015 | doramapimod 0.121 | bafetinib 0.011 | [2] 0.089 | nilotinib 0.018 | [3] 0.03 | dasatinib -0.007 | [4] 0.019 | [5] -0.004 | quisinostat -0.027 | tipifarnib 0.012 | [6] 0.013 | [7] -0.012 | [8] 0.002

SNX30 (UniProt Q5VWJ9)
inactive: lapatinib -0.08 | pictilisib -0.059 | crizotinib -0.006 | [1] -0.002 | duvelisib 0.017 | gandotinib -0.03 | doramapimod 0.003 | bafetinib -0.01 | [2] 0.058 | nilotinib -0.042 | [3] -0.005 | dasatinib -0.02 | [4] -0.046 | [5] 0.039 | quisinostat 0.014 | tipifarnib 0.023 | [6] 0.059 | [7] 0.081 | [8] -0.004

SOHLH2 isoform 3 (UniProt Q9NX45)
inactive: lapatinib 0.014 | pictilisib 0.042 | crizotinib 0.094 | [1] -0.026 | duvelisib 0.025 | gandotinib 0.001 | tozasertib 0.091 | doramapimod 0.048 | bafetinib -0.055 | [2] 0.005 | nilotinib -0.013 | [3] 0.027 | dasatinib 0.025 | [4] -0.071 | [5] -0.004 | quisinostat 0.031 | tipifarnib 0.006 | [6] -0.047 | [7] -0.006 | [8] 0.023

SNX11 (UniProt Q9Y5W9)
inactive: lapatinib -0.002 | pictilisib -0.021 | crizotinib -0.025 | [1] -0.064 | duvelisib 0.014 | gandotinib 0.007 | tozasertib -0.024 | doramapimod 0.004 | bafetinib -0.019 | [2] -0.01 | nilotinib -0.013 | [3] -0.055 | dasatinib 0.005 | [4] -0.062 | [5] 0.001 | quisinostat -0.02 | tipifarnib 0.018 | [6] 0.051 | [7] 0.005 | [8] 0.017

SNAP23 (UniProt O00161)
inactive: lapatinib 0.005 | pictilisib -0.035 | crizotinib 0.067 | [1] 0.034 | duvelisib -0.004 | gandotinib 0.007 | tozasertib 0.005 | doramapimod 0.002 | bafetinib 0.059 | [2] -0.05 | nilotinib 0.001 | [3] 0.015 | dasatinib 0.045 | [4] -0.013 | [5] 0 | quisinostat 0.035 | tipifarnib 0.036 | [6] -0.019 | [7] -0.016 | [8] 0.031

SPAG9 (UniProt O60271)
inactive: lapatinib 0.003 | pictilisib 0.008 | crizotinib 0.006 | [1] -0.034 | duvelisib 0.004 | gandotinib 0.05 | tozasertib 0.009 | doramapimod -0.006 | bafetinib 0.009 | [2] 0.023 | nilotinib 0.002 | [3] 0 | dasatinib 0.027 | [4] -0.009 | [5] -0.014 | quisinostat -0.002 | tipifarnib -0.001 | [6] -0.002 | [7] 0.001 | [8] -0.001

SMG8 isoform 2 (UniProt Q8ND04)
inactive: lapatinib 0.008 | pictilisib 0.023 | crizotinib -0.051 | [1] 0.099 | duvelisib 0.001 | gandotinib -0.111 | tozasertib -0.036 | doramapimod 0.006 | bafetinib -0.038 | [2] -0.056 | nilotinib 0.025 | [3] 0.013 | dasatinib -0.037 | [4] -0.027 | [5] 0.064 | quisinostat 0.032 | tipifarnib 0.02 | [6] 0.032 | [7] 0.007 | [8] 0.002

SMNDC1 (UniProt O75940)
inactive: lapatinib -0.021 | pictilisib 0.034 | crizotinib -0.012 | [1] -0.028 | duvelisib -0.019 | gandotinib 0.022 | tozasertib -0.01 | doramapimod 0.018 | bafetinib -0.012 | [2] -0.04 | nilotinib 0.008 | [3] 0.017 | dasatinib 0.062 | [4] -0.003 | [5] -0.023 | quisinostat -0.066 | tipifarnib -0.019 | [6] 0.009 | [7] 0.005 | [8] 0
